Source: paper PMC5358835
These are yes or no findings as the source states them, for the method shown. In cells and extracts the contact can be indirect. Some binding calls cover weakened binding; strength is not graded here.

Sequences of proteins named here, by UniProt entry; tags and fusion partners are left off.
UniProt Q8CIG8: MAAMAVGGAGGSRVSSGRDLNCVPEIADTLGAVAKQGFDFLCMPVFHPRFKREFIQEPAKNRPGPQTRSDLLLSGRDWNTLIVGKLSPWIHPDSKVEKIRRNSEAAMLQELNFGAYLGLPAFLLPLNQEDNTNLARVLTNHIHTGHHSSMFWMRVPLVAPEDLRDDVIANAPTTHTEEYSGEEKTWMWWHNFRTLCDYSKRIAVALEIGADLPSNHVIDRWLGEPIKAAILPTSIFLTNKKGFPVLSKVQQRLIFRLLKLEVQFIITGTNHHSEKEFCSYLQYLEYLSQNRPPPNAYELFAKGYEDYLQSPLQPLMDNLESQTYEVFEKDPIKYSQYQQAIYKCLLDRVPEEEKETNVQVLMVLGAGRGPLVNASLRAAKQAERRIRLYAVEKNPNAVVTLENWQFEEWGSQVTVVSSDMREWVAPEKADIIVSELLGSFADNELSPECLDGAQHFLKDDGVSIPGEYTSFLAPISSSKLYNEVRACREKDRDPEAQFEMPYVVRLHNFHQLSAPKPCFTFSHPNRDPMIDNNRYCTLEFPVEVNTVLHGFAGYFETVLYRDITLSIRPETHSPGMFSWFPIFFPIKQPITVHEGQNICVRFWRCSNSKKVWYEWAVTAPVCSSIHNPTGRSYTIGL
UniProt P61407: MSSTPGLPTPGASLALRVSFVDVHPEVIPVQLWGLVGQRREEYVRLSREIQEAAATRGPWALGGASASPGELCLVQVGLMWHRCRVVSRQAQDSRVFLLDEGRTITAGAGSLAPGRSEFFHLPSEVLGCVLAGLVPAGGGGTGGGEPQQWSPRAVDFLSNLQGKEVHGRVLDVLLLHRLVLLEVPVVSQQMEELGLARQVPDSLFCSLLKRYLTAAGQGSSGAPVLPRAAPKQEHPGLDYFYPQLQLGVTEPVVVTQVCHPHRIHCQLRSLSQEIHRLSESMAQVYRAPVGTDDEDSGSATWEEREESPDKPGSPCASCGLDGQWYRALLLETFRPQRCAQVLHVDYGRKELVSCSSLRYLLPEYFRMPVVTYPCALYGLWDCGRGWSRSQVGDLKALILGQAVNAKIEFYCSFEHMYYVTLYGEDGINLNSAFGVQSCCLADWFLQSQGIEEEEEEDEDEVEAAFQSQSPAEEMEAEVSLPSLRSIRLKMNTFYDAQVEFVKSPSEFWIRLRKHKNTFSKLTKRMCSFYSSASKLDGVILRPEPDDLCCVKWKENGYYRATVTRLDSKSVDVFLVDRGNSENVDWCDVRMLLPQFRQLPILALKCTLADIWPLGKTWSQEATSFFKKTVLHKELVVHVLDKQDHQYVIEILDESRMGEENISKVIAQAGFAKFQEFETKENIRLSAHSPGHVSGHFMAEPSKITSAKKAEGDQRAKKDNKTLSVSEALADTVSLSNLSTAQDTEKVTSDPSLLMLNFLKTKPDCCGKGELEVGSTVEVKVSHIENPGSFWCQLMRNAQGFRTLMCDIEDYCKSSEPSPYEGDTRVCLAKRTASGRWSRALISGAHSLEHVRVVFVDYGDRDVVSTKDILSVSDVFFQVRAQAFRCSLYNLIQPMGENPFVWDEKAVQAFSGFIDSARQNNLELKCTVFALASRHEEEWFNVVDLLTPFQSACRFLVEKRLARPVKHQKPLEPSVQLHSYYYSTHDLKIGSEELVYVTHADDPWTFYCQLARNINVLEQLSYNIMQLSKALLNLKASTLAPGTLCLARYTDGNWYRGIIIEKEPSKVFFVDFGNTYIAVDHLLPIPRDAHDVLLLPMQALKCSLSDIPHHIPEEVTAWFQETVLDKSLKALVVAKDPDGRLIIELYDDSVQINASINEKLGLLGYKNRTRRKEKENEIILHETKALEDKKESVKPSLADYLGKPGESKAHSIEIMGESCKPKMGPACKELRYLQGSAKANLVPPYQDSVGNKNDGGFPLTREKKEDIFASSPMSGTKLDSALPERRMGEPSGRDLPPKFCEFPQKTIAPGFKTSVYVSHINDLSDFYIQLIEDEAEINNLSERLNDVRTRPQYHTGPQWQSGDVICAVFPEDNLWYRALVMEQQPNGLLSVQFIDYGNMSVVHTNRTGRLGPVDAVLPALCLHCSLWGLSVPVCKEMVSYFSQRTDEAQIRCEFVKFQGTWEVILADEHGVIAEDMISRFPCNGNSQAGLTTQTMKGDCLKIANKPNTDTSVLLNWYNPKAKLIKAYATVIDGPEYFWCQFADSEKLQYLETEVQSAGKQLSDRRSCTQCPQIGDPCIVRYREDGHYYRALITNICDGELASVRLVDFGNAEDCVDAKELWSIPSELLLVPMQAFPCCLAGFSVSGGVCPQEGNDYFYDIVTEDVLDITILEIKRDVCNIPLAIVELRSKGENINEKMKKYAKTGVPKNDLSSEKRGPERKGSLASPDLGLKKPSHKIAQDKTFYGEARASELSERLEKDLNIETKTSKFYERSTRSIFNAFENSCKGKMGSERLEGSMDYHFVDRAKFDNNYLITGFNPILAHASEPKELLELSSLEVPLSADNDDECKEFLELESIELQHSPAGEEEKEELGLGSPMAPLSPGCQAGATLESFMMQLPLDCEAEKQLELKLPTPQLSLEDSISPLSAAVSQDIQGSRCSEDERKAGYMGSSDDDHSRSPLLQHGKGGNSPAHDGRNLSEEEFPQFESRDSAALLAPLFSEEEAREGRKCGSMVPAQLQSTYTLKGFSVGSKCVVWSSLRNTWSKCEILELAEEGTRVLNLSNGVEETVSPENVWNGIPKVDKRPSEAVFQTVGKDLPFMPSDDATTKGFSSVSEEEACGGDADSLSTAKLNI

Target: protein arginine methyltransferase 5 (PRMT5) (mouse (endogenous in testis)) (UniProt Q8CIG8)
Assay: co-IP; α-EGFP or α-PRMT5 IgG; total cell extracts of adult testis cells fixed in 1% formaldehyde for 5 min; immunoblot with α-EGFP and α-PRMT5

Substance: LAP-tagged TDRD6 (Tudor containing protein 6) (from UniProt P61407 1-2134)
- binding: binds
